Reference: the supplement of paper PMC4635364
Counter-ions that a name gives are not always drawn. Some of the results follow. Repeats in this data set agree poorly, so a single value says little.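 Cells: ReNCell VM human fetal ventral-midbrain neural progenitors, differentiated mitogen-free. Blinded raters compared doublecortin-stained (early neurons) or tyrosine hydroxylase-stained (dopaminergic neurons) images with untreated wells, where 0 means no change. After repeats and both raters were averaged, compounds scoring 2 or above became hits for retesting.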

Experiments:
[1] = test system: ReNCell VM; assay: neuronal differentiation score (DCX+ cell fraction vs untreated, manual image score) (score (-3 to 3)); higher = more neuronal differentiation; settings: 2 uM, 2 weeks
[2] = test system: ReNCell VM; assay: dopaminergic neuron differentiation score (TH+ cell fraction vs untreated, manual image score) (score (0 to 3)); higher = more TH+ dopaminergic neuron differentiation; settings: 2 uM, 4 weeks, BDNF 10 ng/ml + GDNF 10 ng/ml

Structure (SMILES): CCN(CC)CCCC(C)Nc1ccnc2cc(Cl)ccc12 (stereo unspecified)
- neuronal differentiation score ([1]; library: Spectrum): inactive: 0
- dopaminergic neuron differentiation score ([2]; library: Spectrum): inactive: 0

Structure (SMILES): CO/N=C(\C(=O)N[C@@H]1C(=O)N2C(C(=O)O)=C(COC(N)=O)CS[C@H]12)c1ccco1 [Cefuroxime sodium salt]
- neuronal differentiation score ([1]; library: Prestwick): inactive: 0
- dopaminergic neuron differentiation score ([2]; library: Prestwick): inactive: 0

Structure (SMILES): CCN(CC)CCNC(=O)c1ccc(NC(C)=O)cc1 [N-Acetylprocainamide hydrochloride]
- neuronal differentiation score ([1]; library: LOPAC): active: 2
- dopaminergic neuron differentiation score ([2]; library: LOPAC): inactive: 0

Structure (SMILES): C#C[C@]1(O)CC[C@H]2[C@@H]3CCC4=CC(=O)CC[C@@H]4[C@H]3CC[C@@]21C
- neuronal differentiation score ([1]; library: Spectrum): inactive: 0
- dopaminergic neuron differentiation score ([2]; library: Spectrum): inactive: 0

Structure (SMILES): CCCCN(CCCC)CCCOC(=O)c1ccc(N)cc1 [Butacaine]
- neuronal differentiation score ([1]; library: Prestwick): inactive: 0
- dopaminergic neuron differentiation score ([2]; library: Prestwick): inactive: 0

Structure (SMILES): CC(=O)[C@H]1CC[C@H]2[C@@H]3CC=C4C[C@@H](O)CC[C@]4(C)[C@H]3CC[C@]12C [Pregnenolone]
- neuronal differentiation score ([1]; library: Prestwick): inactive: 0
- dopaminergic neuron differentiation score ([2]; library: Prestwick): inactive: 0

Structure (SMILES): O=C1O[C@H](CO)[C@@H](O)[C@H](O)[C@H]1O
- neuronal differentiation score ([1]; library: Spectrum): inactive: 0
- dopaminergic neuron differentiation score ([2]; library: Spectrum): inactive: 0

Structure (SMILES): CC(C)(O)CC[C@@H](O)[C@](C)(O)[C@H]1CC[C@@]2(O)C3=CC(=O)[C@@H]4C[C@@H](O)[C@@H](O)C[C@]4(C)[C@H]3CC[C@]12C
- neuronal differentiation score ([1]; library: Spectrum): inactive: 0
- dopaminergic neuron differentiation score ([2]; library: Spectrum): inactive: 0

Structure (SMILES): CC(=O)OCC(=O)[C@@]12OC(C)(C)O[C@@H]1C[C@H]1[C@@H]3C[C@H](F)C4=CC(=O)C=C[C@]4(C)[C@@]3(F)[C@@H](O)C[C@@]12C
- neuronal differentiation score ([1]; library: Spectrum): inactive: 0
- dopaminergic neuron differentiation score ([2]; library: Spectrum): inactive: 0

Structure (SMILES): C[C@@H]1C[C@H]2[C@@H]3CCC4=CC(=O)C=C[C@]4(C)[C@@]3(Cl)[C@@H](O)C[C@]2(C)[C@@]1(OC(=O)c1ccco1)C(=O)CCl [Mometasone furoate]
- neuronal differentiation score ([1]; library: Prestwick): inactive: 0
- dopaminergic neuron differentiation score ([2]; library: Prestwick): inactive: 1

Structure (SMILES): CO[C@@H]1[C@@H](O[C@@H]2O[C@H](C)[C@@H](O[C@H]3C[C@@](C)(O)[C@@H](OC(=O)CC(C)C)[C@H](C)O3)[C@H](N(C)C)[C@H]2O)[C@@H](CC=O)C[C@@H](C)[C@@H](O)/C=C/C=C/C[C@@H](C)OC(=O)C[C@H]1OC(C)=O [Josamycin]
- neuronal differentiation score ([1]; library: Prestwick): inactive: 0
- dopaminergic neuron differentiation score ([2]; library: Prestwick): inactive: 0

Structure (SMILES): O=c1cc(-c2ccccc2)oc2cc(O)c(O)c(O)c12
- neuronal differentiation score ([1]; library: Spectrum): inactive: 0
- dopaminergic neuron differentiation score ([2]; library: Spectrum): inactive: 0

Structure (SMILES): OCCOCCN1CCN(C2=Nc3ccccc3Sc3ccccc32)CC1
- neuronal differentiation score ([1]; library: Spectrum): inactive: 0
- dopaminergic neuron differentiation score ([2]; library: Spectrum): inactive: 0

Structure (SMILES): COc1ccc2[nH]c([S+]([O-])Cc3ncc(C)c(OC)c3C)nc2n1 (stereo unspecified)
- neuronal differentiation score ([1]; library: Spectrum): inactive: 0
- dopaminergic neuron differentiation score ([2]; library: Spectrum): inactive: 0

Structure (SMILES): Cc1ccc(C(=O)Nc2ccc(S(=O)(=O)O)c3cc(S(=O)(=O)O)cc(S(=O)(=O)O)c23)cc1NC(=O)c1cccc(NC(=O)Nc2cccc(C(=O)Nc3cc(C(=O)Nc4ccc(S(=O)(=O)O)c5cc(S(=O)(=O)O)cc(S(=O)(=O)O)c45)ccc3C)c2)c1 [Suramin hexasodium salt]
- neuronal differentiation score ([1]; library: Tocriscreen): inactive: 0
- dopaminergic neuron differentiation score ([2]; library: Tocriscreen): inactive: 0

Structure (SMILES): Cc1ncc([N+](=O)[O-])n1CC(O)CCl (stereo unspecified)
- neuronal differentiation score ([1]; library: Spectrum): inactive: 0
- dopaminergic neuron differentiation score ([2]; library: Spectrum): inactive: 0

Structure (SMILES): CCc1cc(C(N)=S)ccn1 [Ethionamide]
- neuronal differentiation score ([1]; library: Prestwick): inactive: 0
- dopaminergic neuron differentiation score ([2]; library: Prestwick): inactive: 0

Structure (SMILES): Clc1ccc(-c2nc3sccn3c2/C=N/OCc2ccc(Cl)c(Cl)c2)cc1
- neuronal differentiation score ([1]; library: Tocriscreen): inactive: 0
- dopaminergic neuron differentiation score ([2]; library: Tocriscreen): inactive: 1

Structure (SMILES): NC(C(=O)O)c1ccc(C(=O)O)c(C(=O)O)c1 (stereo unspecified)
- neuronal differentiation score ([1]; library: Tocriscreen): inactive: 0
- dopaminergic neuron differentiation score ([2]; library: Tocriscreen): inactive: 0

Structure (SMILES): COc1cc(-c2coc3cc(O[C@@H]4O[C@H](CO)[C@@H](O)[C@H](O)[C@H]4O)c(OC)c(O)c3c2=O)cc(O)c1OC
- neuronal differentiation score ([1]; library: Spectrum): inactive: 0
- dopaminergic neuron differentiation score ([2]; library: Spectrum): inactive: 0

Structure (SMILES): CC(C)(Oc1ccc(C(=O)c2ccc(Cl)cc2)cc1)C(=O)O
- neuronal differentiation score ([1]; library: Spectrum): inactive: 0
- dopaminergic neuron differentiation score ([2]; library: Spectrum): inactive: 0

Structure (SMILES): O=C1c2ccccc2CCC1CNCCc1ccc(O)cc1 (stereo unspecified) [HEAT hydrochloride]
- neuronal differentiation score ([1]; library: Tocriscreen): inactive: 0
- dopaminergic neuron differentiation score ([2]; library: Tocriscreen): inactive: 0

Structure (SMILES): CSc1ccc2c(c1)C(N1CCN(C)CC1)Cc1ccccc1S2 (stereo unspecified) [Methiothepin mesylate]
- neuronal differentiation score ([1]; library: LOPAC): inactive: 0
- dopaminergic neuron differentiation score ([2]; library: LOPAC): inactive: 0

Structure (SMILES): Cc1cc(C)nc(NS(=O)(=O)c2ccc(N)cc2)n1
- neuronal differentiation score ([1]; library: Spectrum): inactive: -1
- dopaminergic neuron differentiation score ([2]; library: Spectrum): inactive: 0

Structure (SMILES): CC[N+](C)(CC)CC(=O)Nc1c(C)cccc1C [N-Methyllidocaine iodide]
- neuronal differentiation score ([1]; library: Tocriscreen): inactive: 0
- dopaminergic neuron differentiation score ([2]; library: Tocriscreen): inactive: 0

Structure (SMILES): CCCCC[C@H](CC(=O)NO)C(=O)N[C@H](C(=O)N1CCC[C@H]1CO)C(C)C [Actinonin]
- neuronal differentiation score ([1]; library: LOPAC): inactive: 0
- dopaminergic neuron differentiation score ([2]; library: LOPAC): inactive: 0

Structure (SMILES): N[C@@H](CC(=O)O)C(=O)O [L-Aspartic acid]
- neuronal differentiation score ([1]; library: LOPAC): inactive: 0
- dopaminergic neuron differentiation score ([2]; library: LOPAC): inactive: 0

Structure (SMILES): Clc1cccc(Cl)c1NC1=NCCN1
- neuronal differentiation score ([1]; library: Spectrum): inactive: 0
- dopaminergic neuron differentiation score ([2]; library: Spectrum): inactive: 0

Structure (SMILES): COc1ccc(-c2cc(=O)c3c(OC)c(OC)c(OC)c(OC)c3o2)cc1OC
- neuronal differentiation score ([1]; library: Spectrum): inactive: 0
- dopaminergic neuron differentiation score ([2]; library: Spectrum): inactive: 0

Structure (SMILES): Oc1ccc2c(c1)OC[C@]1(O)Cc3cc(O)c(O)cc3[C@H]21
- neuronal differentiation score ([1]; library: Spectrum): inactive: 0
- dopaminergic neuron differentiation score ([2]; library: Spectrum): inactive: 0

Structure (SMILES): COC(=O)C(Cc1ccc(OCCn2c(=O)sc3cc(C(=O)c4ccccc4)ccc32)cc1)C(=O)OC
- neuronal differentiation score ([1]; library: Tocriscreen): inactive: 0
- dopaminergic neuron differentiation score ([2]; library: Tocriscreen): inactive: 1

Structure (SMILES): C=C(C)[C@H]1COc2cc3oc(=O)ccc3cc2O1
- neuronal differentiation score ([1]; library: Spectrum): inactive: 0
- dopaminergic neuron differentiation score ([2]; library: Spectrum): inactive: 0

Structure (SMILES): C[C@@H]1CC2C3C[C@H](F)C4=CC(=O)C=C[C@]4(C)[C@@]3(F)[C@@H](O)C[C@]2(C)[C@@]1(O)C(=O)COC(=O)C(C)(C)C (stereo partly specified)
- neuronal differentiation score ([1]; library: Spectrum): inactive: 0
- dopaminergic neuron differentiation score ([2]; library: Spectrum): inactive: 1
